Results taken from PubChem BioAssay AID493014 (National Center for Advancing Translational Sciences (NCATS), 2011).
The other results are listed elsewhere or left out. These are further read-outs of the screen, such as a control signal, another cell line or another target. No call is given for them. The list favours compounds with an active or inconclusive main result. The note in brackets gives the kind of curve behind each potency; many fits are weak.

Assay: qHTS Assay to Find Inhibitors of Chronic Active B-Cell Receptor Signaling
Settings: ABC-DLBCL IkBa-CBG/CBR reporter, luminescence ratio (green luciferase fused to IkBa over red control in TMD8 lymphoma cells), 4 h
How it was run: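 Doxycycline induced both beetle luciferases in TMD8 lymphoma cells; IKK-driven degradation limits the IkappaBalpha-fused green signal, while red luminescence normalises for cell number and nonspecific effects. Compounds tested up to 46 uM, 4 hrs.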

[1] = measured here: CBR red luminescence, cell number
[2] = measured here: IkBa-CBG green luminescence

SMILES	AC50 [1]	AC50 [2]
Clc1ccc2scc(CN3CCCCC3)c2c1	0.82 µM [rising, full curve]	–
Cc1cccc(OCC(=O)N(Cc2ccc(F)cc2)C2CCS(=O)(=O)C2)c1C (configuration not stated)	11.2 µM [falling, partial curve]	–
Nc1nc(Nc2cccc(C(F)(F)F)c2)nc(C(F)(F)F)n1	2.51 µM [rising, full curve]	–
Cc1cc(=O)oc2cc(OCC(=O)N3CCN(c4ccccc4)CC3)ccc12	29.1 µM [rising, single point]	–
CC(=O)Nc1ccc(C(=O)Nc2ccc3c(c2)N(C2CCCC2)C(=O)c2ccccc2S3)cc1	–	12.6 µM [rising, partial curve, poor fit]
COC(=O)c1sccc1NC(=O)CSc1cccc(Cl)c1Cl	6.31 µM [falling, partial curve, poor fit]	–
CC(/C=N/Nc1nc(C)cc(C)n1)=C\c1ccc(C(C)C)cc1	2.06 µM [rising, partial curve, poor fit]	–
Cc1ccccc1Nc1nc(N)nc(COC(=O)CCS(=O)(=O)c2ccccc2)n1	15.8 µM [falling, single point]	–
Cc1ccc(OCC(=O)OCC(=O)c2c(N)n(C)c(=O)n(C)c2=O)cc1C	0.58 µM [falling, partial curve, poor fit]	–
COc1cccc(NC(=O)CSc2nc3c(sc4ccccc43)c(=O)n2CCCN2CCCC2)c1	22.4 µM [falling, single point]	–
O=C(COC(=O)c1cncc(Br)c1)Nc1nc(-c2ccc(F)cc2)cs1	1.12 µM [falling, full curve]	–
Cc1ccc2nc(NC(=O)c3ccc4c(c3)OCO4)sc2c1	1.41 µM [falling, full curve]	–
CCCNc1c(NS(=O)(=O)c2cccs2)c(=O)oc2ccccc12	17.8 µM [falling, partial curve, poor fit]	–
COc1cc(Cl)ccc1OCc1cc(C(=O)NC(C)Cc2cccnc2)no1 (configuration not stated)	35.5 µM [falling, single point]	–
COc1ccc(C(=O)CN2CCN(c3ccc(F)cc3)CC2)cc1OC	11.2 µM [falling, single point]	–
COc1cc(/C=N\NC(=O)c2ccc(-c3ccccc3)cc2)cc(OC)c1OC(C)=O	12.6 µM [falling, partial curve, poor fit]	–
CCOC(=O)Cc1csc(NC(=O)Nc2ccccc2)n1	6.51 µM [falling, partial curve, poor fit]	–
Cc1nn(Cc2ccccc2)c(N)c1C#N	11.2 µM [falling, partial curve, poor fit]	–
CN(C)CCNC(=O)/C(=C/c1ccc(-c2cccc([N+](=O)[O-])c2)o1)NC(=O)c1ccccc1	29.1 µM [falling, single point]	–
NNc1nc2ccc(Cl)cc2s1	1.3 µM [falling, full curve]	–
O=c1cc2c(nn1Cc1ccc(F)cc1)-c1ccccc1CC2	39.8 µM [falling, partial curve, poor fit]	–

Ordered by formula weight (rising): some entries from above
SMILES	AC50 [1]	AC50 [2]
Clc1ccc2scc(CN3CCCCC3)c2c1	0.82 µM [rising, full curve]	–
CCOC(=O)Cc1csc(NC(=O)Nc2ccccc2)n1	6.51 µM [falling, partial curve, poor fit]	–
Cc1ccc2nc(NC(=O)c3ccc4c(c3)OCO4)sc2c1	1.41 µM [falling, full curve]	–

The list goes on:

SMILES	AC50 [1]	AC50 [2]
C/C(Cn1nnc([N+](=O)[O-])n1)=N\NC(=O)c1ccc(Cl)c(Cl)c1	12.6 µM [falling, partial curve, poor fit]	–
O=C(c1cc2ncc(Br)cn2n1)N1CCN(C(=O)c2ccco2)CC1	9.2 µM [rising, partial curve, poor fit]	–
CCCCCc1nnc(NS(C)(=O)=O)s1	1.84 µM [rising, partial curve]	–
O=c1c2cc(N3CCOCC3)ccc2[nH]c(=S)n1Cc1ccccn1	1.84 µM [rising, partial curve, poor fit]	–
O=C(COc1ccc2c(c1)OCO2)Nc1cccc(F)c1	17.8 µM [falling, single point]	–
O=C1O/C(=C/c2ccccc2)c2ccccc21	3.26 µM [rising, full curve, poor fit]	23.1 µM [falling, partial curve, poor fit]
O=C(COC(=O)c1ccncc1)Nc1cc(S(=O)(=O)N2CCOCC2)ccc1Cl	0.731 µM [rising, full curve, poor fit]	–
O=C(Cc1n[nH]c(=O)c2ccccc12)Nc1cccc(S(=O)(=O)N2CCCC2)c1	6.31 µM [falling, partial curve, poor fit]	–
Cc1cc(C)cc(NC(=O)c2cc(S(=O)(=O)N3CCCC3)ccc2F)c1	11.2 µM [falling, partial curve, poor fit]	–
O=C(CC1SC(=O)N(Cc2cccc3ccccc23)C1=O)Nc1nccs1 (configuration not stated)	10 µM [falling, partial curve, poor fit]	–
Cc1cc(CSc2ccccc2)ccc1NC(=O)COc1ccccc1	11.2 µM [rising, partial curve]	–
CCOc1ncccc1C(=O)OCC(=O)c1cccc(Br)c1	35.5 µM [rising, single point]	–
CCCCNc1ccc(C(CC(N)=O)NC(=O)c2ccccc2)cc1[N+](=O)[O-] (configuration not stated)	0.794 µM [rising, partial curve, poor fit]	–
COc1cccc(-c2nnc3n2N=C(C(C)(C)C)CS3)c1	11.2 µM [falling, partial curve, poor fit]	–
Cc1nc(-c2cccc(S(=O)(=O)N3CCC(C(=O)NCc4ccccc4Cl)CC3)c2)no1	35.5 µM [falling, single point]	–
COc1cc(CNc2ccc(N3CCCC3)cc2)cc(Cl)c1OC	7.94 µM [falling, partial curve, poor fit]	–
CCC/C=N/NC(=O)c1cccc(Br)c1	10 µM [falling, partial curve]	–
CCOc1ccc(OCC)c(NC(=O)CSc2nnc(C3CC3)n2CC)c1	35.5 µM [falling, single point]	–
Cc1ccc(-c2nn(-c3cc(Cl)ccc3[N+](=O)[O-])c(=O)c3ccccc23)cc1	15.8 µM [rising, partial curve, poor fit]	–
CCc1ccc(-c2nnn(CCC(=O)OC)n2)cc1	2.82 µM [falling, full curve]	–
